This passage reports z-score results from PubChem BioAssay AID1347423 (Functional Genomics Laboratory (NCATS/FGL), 2020).

Screen size: about 52,000 sequences; about 210 (0.4%) were called active.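 The calls were made as follows: active = gene whose silencing raises cell survival under the drug, median off-target-corrected z-score across its silencing RNAs 2 or more; inactive = the rest.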 The list shows a part of the results.

The assay is described as follows: Resistance to Poly (ADP-Ribose) Polymerase inhibitor: Gene Identification via Genome-wide siRNA Screen. The note with it: mouse BRCA2 R2336H ES cells, olaparib, CellTiter-Glo viability; hits give high values. Summed up:
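Mouse BRCA2 R2336H ES cells were reverse-transfected with siRNA (20 nM final), treated at 48 h with 500 nM olaparib, and read by CellTiter-Glo after 72 h. Scores: MAD-based z per siRNA, median per gene, seed off-target correction.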
In general terms: ATP-based viability assays read luminescence as a measure of living cells.
Turning to GCGGCCUCUUGAAUGAUUCTT against Ccndbp1, the z-score was inactive: -1.48.
Next, CGGGCUCUUUGACAGUUCATT against Ppt2: inactive: -0.902; GCGCAUCCAGUGGUCCUUUTT against Trpv5: inactive: -0.142.
The result for GGGCAUGAAGAGCUACAUCTT against Snag1 reads inactive: -1.94; that for “GGCACGUUAUGAAGACCAGTT against 4921506M07Rik”, inactive: 2.53; that for GCCGACGUAGUGACAUUCUTT against Crybb3, inactive: -1.17.
In the case of GGAUUAAAAUACCUUCACGTT against Map3k5, the z-score is inactive: 0.351.
The result for GGAAAGAGAUACAGAAUCUTT against Brca2 reads inactive: -2.71; that for GGAGGAUAUAAAAAAGAAGTT against BC016226, inactive: -1.2.
The result for GCUCCGUAAGAAGUCUCGUTT against Dhx16 reads inactive: 0.915; that for CCGGAUCCUGGUUAAAAGUTT against Fgd1, inactive: -0.368.
Next, GCCAAUGAAAACCUUUUGCTT against BC003281: inactive: -0.334.
Consider GGGUAGGUUAGGGAGUAAATT against Siah1a, for which the z-score is inactive: -0.917.
Regarding GCAGUACAAAACCAAGCGGTT against Slc1a1, the z-score is inactive: -1.37.
Next, GUCCCAGUACUUCUUGUUUTT against V1rc33: inactive: 0.755; GGGAUUAAAAUCCUAUCUUTT against BC014699: inactive: -2.46.
The result for GCAAGAGGGUUUGUUCCUUTT against Spc18 reads inactive: -0.714.
Next, “GGUAAGACCUCACUUGGUCTT against A630024J02Rik”: inactive: 0.908; GCAGUGUGAACAAUUGAGATT against Mpl: inactive: 0.238; GCACUCGAAAGCGAUGUAATT against LOC378878: inactive: -1.72.
Consider GGUUAAGAAUAACGAAAGGTT against Ipf1, for which the z-score was inactive: 1.16.
Next, “CCCAAUCAGCAAAGACGACTT against 5730502D15Rik”: inactive: -1.09; ACAACUAUACUGGACAGUCTT against Olfr329: inactive: 0.184.
The result for GGAACCUUAAAGAUAGAUUTT against Npepps reads inactive: -0.119; that for GGGCAACCCACAAUAAAAATT against Eppb9, inactive: 1.26.
Next, GGAGGUCGCUACCUUCUAUTT against Top1mt: inactive: -0.693; CGAUGACGAAUACAACCGGTT against Nkx6-2: inactive: 0.663.
GCAAACAUUCGAGAUCUAUTT against Sel1h: the z-score is inactive: -0.355.
The result for GGUAGUAGGGAACCAUAAATT against D10628 reads inactive: -0.58; that for GGCUCUGUGGCACACUUAUTT against Olfr1211, inactive: -0.823.
Next, GGAACUCACUACAGUUUAGTT against Dhx35: inactive: -1.2; GGAACUGGAUCCUAGGAUATT against BC003251: inactive: 0.704; GGAUUGUGGGUUUAUAUAATT against Olfr835: inactive: 1.1.
Next, GGAAAGGACUGUAGAGCGATT against Eml4: inactive: -0.175; GCUCAGACCACCUAAGAGUTT against Tmprss3: inactive: 1.89; GGAGAUCAACCACAAUGUUTT against Tekt1: inactive: -1.81.
On to CCUAUCUCACAUAGGUUUATT against Grb14, for which the z-score is inactive: -0.162.
Next, GGUUAGUUUGUUCAAAUCCTT against Slc6a3: inactive: -0.0303; GGCAGCAGGAUGCAGAAAUTT against Ngef: inactive: -0.951.
Regarding GGAGUCUUUAGUGACAUCCTT against AW549877, the z-score was inactive: 1.48.
Next, GCCUCUUCGAACUCACUAUTT against Siat7c: inactive: -1.34; GGUAUUUUGACCGAAUCAATT against Add3: inactive: 0.61; “GCAACAUCUUGGAUUUAGGTT against B230396O12Rik”: inactive: -0.773.
The result for GGCCAUGGCAGCUUAGAUUTT against Siat8a reads inactive: 0.731; that for UUAAGGUCACCUUCAAUGCTT against Cox11, inactive: -1.84; that for GGAGCUGAGAGUAAAUGAATT against Clcnkb, inactive: -0.644.
Next, GCAAGUCUGCUAAAGGAUUTT against Taf5l: inactive: 1.56; “CCUUUCUCUAAGGAGUUAUTT against A630033E08Rik”: inactive: -0.212.
As to “CGCAGGUGAGAGCAAUGUUTT against 1110067I12Rik”, the z-score was inactive: 0.149.
For “GGUGAAAAGGUUGAUGUCATT against 4921530L21Rik”, the z-score was inactive: -0.856.
Next, GGGACAAGUGGUUGAAACCTT against LOC381813: inactive: -0.445.
The result for GGAUCAUUCUGUGAACAAGTT against Ly6h reads inactive: -1.24; that for GGUAGAUGAAGUCCUUUAUTT against Mthfs, inactive: 0.0266; that for GGAUGAUUGCCAAAGCAGATT against Eps8, inactive: 0.824.
Next, CCUAUCGACACUGCCGAAATT against B3gnt4: inactive: 0.407; “GCUAACCACCAAACCUUCUTT against A430110N23”: inactive: 1.71; GGAGAAGCUGAAAGGUUAUTT against Ifrd2: inactive: 0.555.
On to “CCUUAUUGGAUCUUGUUCGTT against 4932415G16Rik”, for which the z-score was inactive: 0.16.
The result for “GGGCAAGAGAGUAGAACUGTT against D030051N19Rik” reads inactive: 0.175.
As for GGUCUGAGCAUUCUCAGCATT against Mrgprb2, the z-score is inactive: -0.804.
Next, “GCUUAUGACUUAAAAGCCCTT against 2610020C11Rik”: inactive: -0.311.
The result for GGAGUUUUUAAAUGUUCUCTT against Syt1 reads inactive: 1.02; that for GGAUCAAAGACGAAUUCCATT against Tle3, inactive: -0.197.
Next, GCACUAAGUUUUGGAUUAATT against Mapkap1: inactive: -0.259; GGAUGCAGAAGAUUUUGUGTT against Ptprcap: inactive: 1.55; GGUCAGAGCAUUGUGAACATT against Abcb10: inactive: 0.474.
As for GCACUUUGAAUAUUGAUCGTT against Hipk3, the z-score was inactive: 0.0324.
The result for CCGAGUGUAAUUUCCUAAATT against Pcdhgb5 reads inactive: -0.645; that for “GGAGUGGGAAUCUUUGAAATT against 1700022C02Rik”, inactive: 0.525.
The result for “GGUGGACAUGAGGAAACGATT against 2010315L10Rik” reads inactive: 0.195.
The result for GGAUCUUCGGAAGACAUGUTT against Ppp1r3a reads inactive: -2.23.
As for “GGAUUCUGAUCUUUGGUGUTT against C130036G08”, the z-score was inactive: 0.0768.
The result for GGAGCAAAUGAUUUCAUGUTT against Tcp1 reads inactive: -1.79.
Next, “CCCACUUUUUUUUAGACUGTT against 2310046K01Rik”: inactive: -0.433; GGUAACCAAAACAAUUCUGTT against Cog8: inactive: 0.551; GGUUUUUGGUGUGUUUCUCTT against Ppp1r12c: inactive: 0.113.
The result for GCAUGAUAUCAGUGGCAAGTT against Itga11 reads inactive: -1.86; that for GCAGUACAAGCCAUCUGUUTT against Olfm4, inactive: -1.44.
On to GGACUUUGUGAGGCUCUUCTT against Lsm2, for which the z-score is inactive: 0.622.
Next, “CCAGCCUAAUCAAAGACCUTT against A930008G19Rik”: inactive: 0.378; GGUCUAGAGCAAUUCCAUATT against Olfr656: inactive: -0.0764; GGCCUGGAAGUAGCAUUGUTT against Mrpl17: inactive: 0.0584.
The result for CCUGCUCAAAGUAAGUUACTT against Gm503 reads inactive: -0.419; that for GCCUUAAGCUAACAGUGGATT against Nrxn3, inactive: 0.169; that for CCGCCUCUUACCGAAGUUCTT against Mettl4, inactive: -0.232.
Next, CCAAGCCUAUUCUUAACUUTT against Gm1960: inactive: 0.0627; CGGCAGAGAUUAUAUCAUCTT against Syn3: inactive: 0.545; “GCCCUACUAAGUCAAUUAATT against 1700055D18Rik”: inactive: 0.187.
Consider GCAUACCUAUUCACGUACGTT against Slc7a4, for which the z-score is inactive: -0.0964.
For GGGUCUGAUCCGACAUUUCTT against Ndufv1, the z-score is inactive: -0.935.
The result for “GGAGUCACCAGACUUGUGUTT against 9530004A22Rik” reads inactive: -0.147; that for GGUGAGUUAUAAAAGACCATT against Pex12, inactive: 0.328.
The result for GGAACUGCCAUUGUAUGGGTT against Myo1g reads inactive: -2.42; that for GGGACUUCAGGGAUUGAUUTT against Atp6v1b1, inactive: -0.251; that for “CCAGGACUUACUCAGUAAUTT against 0610039J04Rik”, inactive: -0.283.
Next, GGCCUUGAAUUUCUCCUAUTT against Dgcr8: inactive: 0.3; CCUAGUUUGGUGAUGAUGUTT against Apg10l: inactive: -0.93; GGAUGACACACACUAUUAUTT against Plek2: inactive: -0.956.
On to CGGAACAGACCAUCUCACUTT against Plec1, for which the z-score is inactive: -1.12.
For the sequence GGCCAUCGAGGACUCUUCUTT against Dyx1c1, the z-score is inactive: 3.94.
Next, GGCUGCAUUACCCAGCUUATT against Olfr853: inactive: -2.62.
For GGAGAGCUGCAUCAAAAAGTT against Prdm16, the z-score was inactive: 0.0426.
The result for GCAUCCUACUUCUCAACUUTT against Ceacam12 reads inactive: -0.797.
The result for GGUAACAUCUCCAUCAGCCTT against Nxph3 reads inactive: -0.34.
